Source: PubChem BioAssay AID652243 (Drosophila RNAi Screening Center, 2013)
The deposit covers about 24,000 reagents; below is an unselected part of those that have a named target and a result. Of all reagents, 246 (1%) got an active call. 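Plates not normalised; calls are printed but the firefly/Renilla ratio behind them is not deposited; fold cut for lowering reported inconsistently.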 Raw values are not corrected between plates. Reagents against one gene are numbered here. Names joined by + are all predicted targets of the reagent. The record does not give: the amount of reagent.

- Aim: 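Knock-downs that decrease or increase androgen receptor reporter signal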 (primary screen)
- Cells: Drosophila S2R+ cells
- Reagents: long dsRNA against Drosophila genes
- Time to read-out: 72 h (48 h, then 24 h hormone)
- Conditions: synthetic androgen R1881 at 10 nM for 24 h
- Measured: 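Per-well raw luminescence of the androgen-driven firefly reporter and of the Renilla control, two replicates each, without normalisation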
- Reading the numbers: firefly reporter light: higher = more light from androgen-responsive reporter; Renilla control light: higher = more constitutive control signal (cell number, transfection)
- Hit rule: 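Hit when the log firefly-to-Renilla ratio dropped or increased by a fixed fold versus the mean of GFP or LacZ controls across duplicate plates; lowering cut given as 1.5 and as 3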
- Calls: active = hit: reporter lowered or raised; inactive = no hit

Gene | dsRNA no. | firefly reporter light, replicate 1 | firefly reporter light, replicate 2 | Renilla control light, replicate 1 | Renilla control light, replicate 2 | activity call
RpS28a | 1 | 2.33e5 | 1.17e5 | 1.89e6 | 2.23e6 | inactive
Ets21C | 1 | 1.29e5 | 1.30e5 | 8.24e5 | 9.73e5 | inactive
Gr93d | 1 | 5.77e5 | 5.92e5 | 2.03e6 | 2.05e6 | inactive
mRpS5 | 1 | 6.00e5 | 6.13e5 | 2.26e6 | 2.00e6 | inactive
BckdhB | 1 | 9.22e5 | 9.75e5 | 2.17e6 | 2.14e6 | inactive
CG31988 | 1 | 4.63e5 | 7.68e5 | 6.62e5 | 1.07e6 | inactive
CG8818 | 1 | 9.61e5 | 1.07e6 | 1.19e6 | 1.08e6 | inactive
CG8818 | 2 | 3.88e5 | 4.50e5 | 1.40e6 | 1.15e6 | inactive
gt | 1 | 5.38e5 | 6.34e5 | 92340 | 1.06e5 | inactive
gt | 2 | 3.32e5 | 6.31e5 | 8.44e5 | 1.16e6 | inactive
CG3008 | 1 | 57385 | 53491 | 3.19e5 | 2.64e5 | inactive
CG3008 | 2 | – | – | – | – | inactive
cher | 1 | 1.12e5 | 1.23e5 | 9.06e5 | 8.32e5 | inactive
cher | 2 | 2.61e5 | 2.52e5 | 3.57e5 | 6.23e5 | inactive
Spn42Dd | 1 | 3.79e5 | 3.60e5 | 2.69e6 | 2.63e6 | inactive
Spn42Dd | 2 | 9.43e5 | 8.30e5 | 2.13e6 | 2.08e6 | inactive
CG7140 | 1 | 1.91e5 | 1.18e5 | 1.54e6 | 1.80e6 | inactive
Ir52c | 1 | 4.76e5 | 4.81e5 | 1.67e6 | 2.34e6 | inactive
Ir52c | 2 | 2.63e5 | 2.70e5 | 3.88e5 | 4.71e5 | inactive
CAH7 | 1 | 1.52e5 | 1.91e5 | 1.88e6 | 2.44e6 | inactive
heph | 1 | 9.09e5 | 3.34e5 | 1.67e6 | 5.60e5 | inactive
heph | 2 | 1.17e6 | 6.38e5 | 3.04e6 | 1.56e6 | inactive
heph | 3 | 1.51e5 | 2.40e5 | 2.08e6 | 2.76e6 | inactive
heph | 4 | 1.38e6 | 1.16e6 | 2.19e6 | 2.11e6 | inactive
CG41099 | 1 | 1.22e6 | 1.00e6 | 2.64e6 | 1.89e6 | inactive
CG15878 | 1 | 79838 | 97626 | 8.20e5 | 9.28e5 | inactive
CG15878 | 2 | 3.60e5 | 3.13e5 | 1.12e6 | 1.03e6 | inactive
D | 1 | 1.77e5 | 1.47e5 | 1.83e6 | 1.13e6 | inactive
D | 2 | 3.93e5 | 5.97e5 | 3.16e5 | 3.60e5 | inactive
CG9400 | 1 | 94897 | 1.34e5 | 7.64e5 | 8.59e5 | inactive
Mapmodulin | 1 | 1.05e6 | 8.08e5 | 2.05e6 | 1.48e6 | inactive
Mapmodulin | 2 | – | – | – | – | inactive
Cds | 1 | 6.84e5 | 8.14e5 | 1.67e6 | 2.05e6 | inactive
Zw10 | 1 | 1.44e5 | 68567 | 6.91e5 | 5.33e5 | inactive
Zw10 | 2 | 5.64e5 | 6.27e5 | 4.16e5 | 3.61e5 | inactive
Fibp | 1 | 26483 | 36047 | 3.58e5 | 2.93e5 | inactive
Fibp | 2 | 3.41e5 | 3.46e5 | 5.47e5 | 7.94e5 | inactive
CG32544 | 1 | 1.18e5 | 50340 | 4.46e5 | 2.00e5 | inactive
CG32544 | 2 | 8.18e5 | 7.55e5 | 5.68e5 | 6.92e5 | inactive
CG17996 + Tsen2 | 1 | 1.33e5 | 1.97e5 | 1.35e6 | 1.76e6 | inactive
CG5757 | 1 | 1.00e6 | 7.91e5 | 2.14e6 | 1.70e6 | inactive
CG5757 | 2 | – | – | – | – | inactive
beat-IIIb | 1 | 2.20e5 | 2.35e5 | 2.18e6 | 2.67e6 | inactive
Mal-A2 | 1 | 3.78e5 | 5.41e5 | 2.44e6 | 1.99e6 | inactive
CG10301 | 1 | 1.77e5 | 1.97e5 | 2.22e6 | 2.14e6 | inactive
mbm | 1 | 8.23e5 | 5.08e5 | 2.96e6 | 1.41e6 | inactive
Uxt | 1 | 1.50e5 | 1.40e5 | 2.18e6 | 2.52e6 | inactive
CG2641 | 1 | 81470 | 65355 | 1.76e6 | 1.11e6 | inactive
CG33080 | 1 | 1.84e5 | 2.58e5 | 2.78e6 | 3.56e6 | inactive
CG33080 | 2 | 1.97e5 | 2.77e5 | 2.77e6 | 2.79e6 | inactive
CG33080 | 3 | 1.01e5 | 95534 | 1.29e6 | 1.47e6 | inactive
CG33080 | 4 | 2.73e5 | 2.64e5 | 5.81e5 | 5.78e5 | inactive
Octalpha2R | 1 | 3.03e5 | 3.65e5 | 5.22e5 | 6.22e5 | inactive
Octalpha2R | 2 | 1.76e5 | 1.59e5 | 1.75e6 | 1.75e6 | inactive
l(2)05714 | 1 | 8.18e5 | 9.99e5 | 1.62e6 | 1.78e6 | inactive
l(2)05714 | 2 | 5.47e5 | 5.23e5 | 1.16e6 | 1.59e6 | inactive
CG6788 | 1 | 4.50e5 | 4.55e5 | 3.69e6 | 3.85e6 | inactive
CG6788 | 2 | 6.47e5 | 6.72e5 | 7.09e5 | 7.99e5 | inactive

Targets above whose target name starts with B or b:
Gene | dsRNA no. | firefly reporter light, replicate 1 | firefly reporter light, replicate 2 | Renilla control light, replicate 1 | Renilla control light, replicate 2 | activity call
BckdhB | 1 | 9.22e5 | 9.75e5 | 2.17e6 | 2.14e6 | inactive
beat-IIIb | 1 | 2.20e5 | 2.35e5 | 2.18e6 | 2.67e6 | inactive
